Laboratory results reported in publication PMC12607788.
Construct, isoform or probe ends are uncertain for at least one entry. Protein sequences can lack the tags named with them.

Target: T1, Fur (Corynebacterium glutamicum ATCC13032) (UniProt Q8NNC4)
T1 sequence (looked up, limits assumed): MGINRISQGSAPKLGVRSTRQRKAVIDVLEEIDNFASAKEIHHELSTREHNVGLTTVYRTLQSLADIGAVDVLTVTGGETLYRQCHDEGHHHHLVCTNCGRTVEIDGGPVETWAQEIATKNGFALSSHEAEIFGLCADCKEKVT
Assay: EMSA
Conditions: Fur 0-14 ug, 90 ng probe, 20 uL, 1 mM EDTA, no metal added, EMSA: 1x binding buffer (10 mM Tris, 50 mM KCl, 1 mM DTT, pH 7.5), plus 1 uL 1 mM KCl, 2.5% glycerol in 20 uL, room temperature 30 min, recombinant protein, protein details: His6 (pET28a, N-terminal), probe letters rebuilt from the primers and the genome

“GCCCGCAATAATGTTGAACGTGTCATCGTCGAGGCTACTGTCTGCGATGAGCAGGCCATCGGTGTGCGTGATTGTTGCGGATGCAAGATGCCGGTGGAGATGGCAGAAATGCTCCGCTAAGTTCTCTTCGATTGCGCGTTGTAATTTACCGAGGTCCTTCATAAAACTTCATTTTAGGTATCACAAAGGTGCCATAAGTCGCACCCTTTGTTAGACTGCAAAACTCGCCTTTTGGTTCCCTCAAAAGCAAATCTGAGAATCTTCCCACTTTCACTAGTCTTATCCCGGACCAGCGCACTACAGTTCCTGGATTAGGGGATGTAAAGATCTAAAGCTGGGGGAATACATGG (double strand) [T7SS promoter (PT7SS)]”: binds.
